For the test, the system named is B6D2F1 mice, nontumored toxicity test, survival. As to the kind of experiment: NCI In Vivo Anticancer Drug Screen. Data for tumor model Nontumored Animals (Toxicity Test) in B6D2F1 (BDF1) mice. The conditions noted are these: vehicle: saline.

Values are animals surviving of animals treated; these mice carried no tumour. Counts of survivors are from the toxicity check (mostly the fifth day) where no day follows; animals may have died later. Schedules are NCI's codes, read here as Q, the interval in days (D) or hours (H), X, the number of doses.

Consider `Nc1ncn(C2OC(CO)C(O)C2O)c(=O)n1` (stereo unspecified), for which the survivor count (dose: 0.38 mg/kg/injection, schedule: Q01DX009 (ip)) is listed as 5 of 5; the survivor count (dose: 0.75 mg/kg/injection, schedule: Q01DX009 (ip)) is listed as 5 of 5; the survivor count (dose: 1.25 mg/kg/injection, schedule: Q04DX003 (ip)) is listed as 8 of 8; the survivor count (dose: 1.5 mg/kg/injection, schedule: Q01DX009 (ip)) was 5 of 5; the survivor count (dose: 2.5 mg/kg/injection, schedule: Q04DX003 (ip)) is recorded as 8 of 8; the survivor count (dose: 3.0 mg/kg/injection, schedule: Q01DX009 (ip)) is 5 of 5. Moreover, the survivor count (dose: 5.0 mg/kg/injection, schedule: Q04DX003 (ip)) is reported as 8 of 8; the survivor count (dose: 6.0 mg/kg/injection, schedule: Q01DX009 (ip)) is given as 5 of 5; the survivor count (dose: 10.0 mg/kg/injection, schedule: Q04DX003 (ip)) was 8 of 8; the survivor count (dose: 20.0 mg/kg/injection, schedule: Q04DX003 (ip)) is reported as 8 of 8; the survivor count (dose: 40.0 mg/kg/injection, schedule: Q04DX003 (ip)) was 8 of 8.
